Reference: article PMC9926633
These are yes or no findings as the source states them, for the method shown. Binding seen in cells or lysates may run through a third protein. Some entries that bind do so weakly or less than the wild type.

By UniProt entry, the sequences of proteins in these tests, tags left out.
UniProt Q99623: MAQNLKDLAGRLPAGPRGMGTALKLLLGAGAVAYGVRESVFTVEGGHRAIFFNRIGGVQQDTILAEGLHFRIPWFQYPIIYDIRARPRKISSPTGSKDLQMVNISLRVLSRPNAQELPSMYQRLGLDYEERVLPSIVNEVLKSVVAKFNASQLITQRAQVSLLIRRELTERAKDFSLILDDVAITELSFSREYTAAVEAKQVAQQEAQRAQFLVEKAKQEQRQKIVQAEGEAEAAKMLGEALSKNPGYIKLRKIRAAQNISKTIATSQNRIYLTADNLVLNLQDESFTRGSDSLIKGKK
UniProt P01106: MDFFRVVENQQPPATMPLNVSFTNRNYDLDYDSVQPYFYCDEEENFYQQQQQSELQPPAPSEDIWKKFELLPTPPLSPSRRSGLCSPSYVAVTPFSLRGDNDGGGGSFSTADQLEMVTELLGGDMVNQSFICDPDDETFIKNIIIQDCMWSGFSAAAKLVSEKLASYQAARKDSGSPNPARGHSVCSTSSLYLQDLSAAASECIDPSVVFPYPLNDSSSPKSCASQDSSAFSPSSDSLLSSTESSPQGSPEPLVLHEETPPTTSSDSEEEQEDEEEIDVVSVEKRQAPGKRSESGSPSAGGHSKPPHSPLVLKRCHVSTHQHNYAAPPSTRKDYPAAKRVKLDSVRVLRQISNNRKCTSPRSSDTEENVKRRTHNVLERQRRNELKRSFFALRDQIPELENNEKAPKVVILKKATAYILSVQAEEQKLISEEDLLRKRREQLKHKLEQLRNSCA

Target: Flag-PHB2 (pcDNA3.1-PHB2-FLAG) (UniProt Q99623)
Experiment: co-IP; pcDNA3.1-Flag-PHB2 and pcDNA3.1-HA-c-Myc cotransfected into MDA-MB-231 cells; PHB2 immunoprecipitated; immunoblotting of the Flag and HA tags; also done with cells overexpressing LacRNA (interaction said to be enhanced)

binding: binds
Substance: HA-c-Myc (pcDNA3.1-c-Myc-HA) (from UniProt P01106 1-454)
